# Measured values from paper PMC8184810, “Light regulates stomatal development by modulating paracrine signaling from inner tissues”.
# For some of these results: The comparison behind a weaker result is the experiment's own reference, which may not be listed here. For some of these results: Protein sequences can lack the tags named with them. For some of these results: Construct, isoform or probe ends are uncertain for at least one entry. For some of these results: Negatives hold for the conditions tested.
# Assays:
# [1] = target: T1, MBP-HY5 (Arabidopsis thaliana) (UniProt O24646); assay: competition with a labelled probe; conditions: did not effectively compete, EMSA: 20 fmol biotin probe, ~1 ug protein, 20 ul binding buffer (composition not given), on ice 1 h, recombinant protein, residues 1-168, protein details: N-terminal MBP (pETG-40A), label: biotin (pull-down), unlabeled as competitor
# T1 sequence (looked up): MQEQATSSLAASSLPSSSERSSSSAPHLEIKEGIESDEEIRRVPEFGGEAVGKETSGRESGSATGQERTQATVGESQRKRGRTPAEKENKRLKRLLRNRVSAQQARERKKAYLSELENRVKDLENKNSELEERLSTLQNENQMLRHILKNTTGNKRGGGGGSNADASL
# [2] = tested on: MBP; assay: EMSA; conditions: EMSA: 20 fmol biotin probe, ~1 ug protein, 20 ul binding buffer (composition not given), on ice 1 h; recombinant protein
# [3] = target: T1, MBP-HY5 (Arabidopsis thaliana); assay: pull-down; conditions: 5 mM MgCl2, salmon sperm DNA; pull-down: 10 mM Tris-HCl pH 7.5, 50 mM KCl, 5 mM MgCl2, 2.5% glycerol, 0.05% NP-40, 5 ug salmon sperm DNA, 10 ug BSA, 4 C 1 h; recombinant protein; residues 1-168; protein details: N-terminal MBP (pETG-40A); label: biotin (pull-down), unlabeled as competitor
sequence,measurement,setting,value
ATATGTTTGACCGAAGAAAAATAGAGTTAAATATGTTGTGCTAAAAGGATAAAGAGAAGA (double strand) [P3 (STOMAGEN promoter)],binding result,[1]; unlabeled P3 vs biotin-P2 probe,binds more weakly
TCCTCTGTATTTTCAAACTCTTATCTCTACGTGTGCACAAACCTCACCATTAGATGATAA (double strand) [P2 (STOMAGEN promoter)],binding result,[2],no binding
TCTCTCTCCACAACATTTGGTCCATACGATAAAGCAAGAAGAAGAATTAAGAATTAGAGC (double strand) [P1 (STOMAGEN promoter)],binding result,[1]; unlabeled P1 vs biotin-P2 probe,binds more weakly
same,binding result,[3],binds more weakly
